Tested on: rat gingival epithelial cells (GEC)
Test: Mass spectrometry differential profiling of degradation products of gingival epithelial cells treated with purified gingipains
Conditions: 37° C. 1 hr, MALDI-TOF

Sequence | Peak intensity ratio relative to control (enzyme-free group) (Kgp treatment) | Peak intensity ratio relative to control (enzyme-free group) (RgpB treatment)
YEELQQTAGRHGDDLRNTK (listed as Homo sapiens) [peptide 2] | 14.9 | –
YEELQITAGRHGDDLRNTK (listed as Homo sapiens) [peptide 1] | 11.6 | –
TKVMDVHDGKVVSTHEQVLR (MOD_RES (4)..(4) Methionine residue may be oxidized.; listed as Homo sapiens) [peptide 3] | – | 1.4
TKVMDVHDGKVVSTHEQVLR + (O) [peptide 4] | – | 23.5
